Assay results published in paper PMC12041575.

By UniProt entry, the sequences of proteins in these tests, tags left out.
UniProt Q9NR30: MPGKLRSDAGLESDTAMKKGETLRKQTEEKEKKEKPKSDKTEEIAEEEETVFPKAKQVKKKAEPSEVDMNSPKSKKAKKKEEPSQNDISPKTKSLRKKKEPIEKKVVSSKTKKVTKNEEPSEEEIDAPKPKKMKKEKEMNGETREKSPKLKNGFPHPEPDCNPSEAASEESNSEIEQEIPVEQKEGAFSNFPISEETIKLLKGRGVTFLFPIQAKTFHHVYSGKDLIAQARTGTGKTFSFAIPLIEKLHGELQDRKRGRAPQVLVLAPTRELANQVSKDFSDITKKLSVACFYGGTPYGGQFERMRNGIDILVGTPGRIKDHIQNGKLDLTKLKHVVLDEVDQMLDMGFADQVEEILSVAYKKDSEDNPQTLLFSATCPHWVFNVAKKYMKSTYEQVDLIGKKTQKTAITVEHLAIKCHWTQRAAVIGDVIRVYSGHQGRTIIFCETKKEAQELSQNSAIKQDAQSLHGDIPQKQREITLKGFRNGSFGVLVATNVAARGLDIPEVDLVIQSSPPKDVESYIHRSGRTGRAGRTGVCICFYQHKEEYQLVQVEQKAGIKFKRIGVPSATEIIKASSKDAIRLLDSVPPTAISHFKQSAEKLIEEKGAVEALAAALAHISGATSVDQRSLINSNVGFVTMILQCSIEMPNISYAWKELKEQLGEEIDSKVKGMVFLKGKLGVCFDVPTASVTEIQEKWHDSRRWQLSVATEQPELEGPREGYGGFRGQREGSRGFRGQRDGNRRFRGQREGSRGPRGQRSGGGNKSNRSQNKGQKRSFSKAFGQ
UniProt Q92769: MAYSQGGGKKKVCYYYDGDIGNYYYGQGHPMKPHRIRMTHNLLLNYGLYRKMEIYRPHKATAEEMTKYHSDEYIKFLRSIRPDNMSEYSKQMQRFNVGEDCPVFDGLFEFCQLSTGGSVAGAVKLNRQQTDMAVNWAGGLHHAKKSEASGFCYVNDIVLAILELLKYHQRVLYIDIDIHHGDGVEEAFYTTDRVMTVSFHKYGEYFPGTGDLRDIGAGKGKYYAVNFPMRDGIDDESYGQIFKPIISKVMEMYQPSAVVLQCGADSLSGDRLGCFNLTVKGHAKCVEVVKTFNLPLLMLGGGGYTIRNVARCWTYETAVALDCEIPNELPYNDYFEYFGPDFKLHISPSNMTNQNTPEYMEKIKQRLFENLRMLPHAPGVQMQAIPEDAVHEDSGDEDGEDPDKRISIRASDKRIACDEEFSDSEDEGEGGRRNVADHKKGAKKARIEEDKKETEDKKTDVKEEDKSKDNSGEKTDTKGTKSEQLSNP
UniProt Q9NRC8: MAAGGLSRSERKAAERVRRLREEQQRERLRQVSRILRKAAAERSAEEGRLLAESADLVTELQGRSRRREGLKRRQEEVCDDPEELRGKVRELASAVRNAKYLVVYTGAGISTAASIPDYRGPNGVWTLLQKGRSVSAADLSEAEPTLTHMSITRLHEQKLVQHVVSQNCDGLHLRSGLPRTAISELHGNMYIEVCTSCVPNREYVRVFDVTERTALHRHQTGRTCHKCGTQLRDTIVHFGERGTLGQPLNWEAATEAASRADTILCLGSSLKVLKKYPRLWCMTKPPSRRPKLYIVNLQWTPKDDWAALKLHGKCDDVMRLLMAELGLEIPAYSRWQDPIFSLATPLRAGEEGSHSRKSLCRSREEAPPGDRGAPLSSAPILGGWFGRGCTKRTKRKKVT

Target: DExD-box helicase 21 (DDX21) (human (endogenous in HCT116)) (UniProt Q9NR30)
Assay: affinity purification with mass spectrometry; Co-IP of DDX21 in HCT116 cells; enriched proteins separated and analysed by mass spectrometry (Co-IP/MS)

Row | binding | Substance
1 | binds | HDAC2 (from UniProt Q92769 1-488)
2 | binds | sirtuin 7 (SIRT7) (from UniProt Q9NRC8 1-400)

These are yes or no findings as the source states them, for the method shown. In cells and extracts the contact can be indirect. These calls come from enrichment with a bait or labelling near it, and not all partners need be listed.
